In the supplement of paper PMC12259267, “Disruption of the KLHL37–N-Myc complex restores N-Myc degradation and arrests neuroblastoma growth in mouse models” (The Journal of Clinical Investigation, 2025):
Counter-ions that a name gives are not always drawn. This is one part of the list. Single values are uncertain, as repeats are few or missing.

Tested on: SK-N-BE(2)
Assay: inhibition of N-Myc immunofluorescence signal per cell relative to control (fraction); higher = stronger N-Myc protein reduction
Conditions: 1 µM; 9 h

| SMILES | inhibition of N-Myc immunofluorescence signal per cell |
| --- | --- |
| CC(C)(C)C(=O)Nc1ccc2c(c1)C(=O)C(=O)c1ccccc1-2 | -0.0559 |
| O=C1CCC(N2Cc3cc(CNC(=O)C(F)(F)c4ccc(Cl)cc4)ccc3C2=O)C(=O)N1 (stereo not given) [Cereblon modulator 1] | -0.0887 |
| COC[C@H](NC(=O)c1cnc(C)s1)C(=O)N[C@@H](COC)C(=O)N[C@@H](Cc1ccccc1)C(=O)[C@@]1(C)CO1 [Oprozomib] | 0.204 |
| O=c1c(O)c(-c2ccc(O)c(O)c2)oc2cc(O)ccc12 [Fisetin] | 0.0467 |
| O=C(O)C(S)=Cc1c[nH]c2ccc(F)cc12 | 0.077 |
| COc1ccc(-c2nc(N3CCOCC3)c3sc(CN(C)c4ncc(C(=O)NO)cn4)cc3n2)cn1 [Fimepinostat] | 0.244 |
| O=C1/C(=C/c2ccc([N+](=O)[O-])cc2)CNC/C1=C\c1ccc([N+](=O)[O-])cc1 | 0.394 |
| CCOC(=O)c1ccc(N2NC(=O)C(=Cc3ccc([N+](=O)[O-])o3)C2=O)cc1 | 0.0292 |
| CCCCNNC(=O)c1ccc(Br)cc1 | -0.157 |
| O=C(CCCCCCNC(=O)c1cnc(N(c2ccccc2)c2ccccc2Cl)nc1)NO [Citarinostat] | -0.00287 |
| Cc1ccc(/C=C2\CNC/C(=C\c3ccc(C)cc3)C2=O)cc1 | 0.109 |
| c1ccc(CNc2nc(N3CCOc4ccccc43)nc3c2CCCC3)cc1 [ML241 (hydrochloride)] | -0.0582 |
| CCCc1cc(C)[nH]c(=O)c1CNC(=O)c1cc(-c2ccc(N3CCN(C(C)C)CC3)nc2)cc2c1cnn2C(C)C | 0.0846 |
| CC1(C)CC[C@]2(NC(=O)C(C)(F)F)CC[C@]3(C)[C@H](C(=O)C=C4[C@@]5(C)C=C(C#N)C(=O)C(C)(C)[C@@H]5CC[C@]43C)[C@@H]2C1 [Omaveloxolone (RTA-408)] | 0.736 |
| O=C(/C=C/c1ccccc1)c1ccc(O)cc1 [4'-Hydroxychalcone] | -0.0224 |
| CC(C)=CC[C@@H](O)C1=CC(=O)c2c(O)ccc(O)c2C1=O [Shikonin] | 0.131 |
| O=C(/C=C/c1ccc(CN(CCO)CCc2c[nH]c3ccccc23)cc1)NO [Dacinostat] | 0.134 |
| CC(C)(C)OC(=O)c1ccc(-n2[nH]cc(-n3ccnn3)c2=O)nc1 | -0.11 |

| SMILES | inhibition of N-Myc immunofluorescence signal per cell |
| --- | --- |
| CCN(c1cc(-c2ccc(CN3CCOCC3)cc2)cc(C(=O)NCc2c(C)cc(C)[nH]c2=O)c1C)C1CCOCC1 [Tazemetostat] | 0.0426 |
| CC(C)(C)NS(=O)(=O)c1cccc2c(NC(=O)[C@H](Cc3ccccc3)NC(=O)C3CCCCC3)cccc12 | -0.136 |
| COc1ccc(C2=N[C@H](c3ccc(Cl)cc3)[C@H](c3ccc(Cl)cc3)N2C(=O)N2CCNC(=O)C2)c(OC(C)C)c1 [Nutlin-3b] | 0.123 |
| O=C(O)c1c[nH]c2c(ccc3cccnc32)c1=O | 0.152 |
| C#CCOc1cccc2c1C(=O)N(C1CCC(=O)NC1=O)C2=O (stereo not given) [Thalidomide-propargyl] | 0.0788 |
| Cc1nc(C(=O)NCC(=O)O)c(O)c2ccc(Oc3ccccc3)cc12 [Roxadustat] | 0.0189 |
| CCCCNNC(=O)c1ccc(-c2cccc(F)c2F)cc1 | -0.0356 |
| CCOC(=O)c1ccc(OC(=O)CCCCCNC(=N)N)cc1 [Gabexate (mesylate)] | 0.0326 |
| CCCC(CCC)C(=O)O [Valproic acid] | -0.11 |
| CCOC(=O)c1ccc(-c2ncc(C(=O)OCC)s2)nc1 [Diethyl-pythiDC] | -0.0252 |
| COc1cc2nc(N3CCCC3)nc(NCCCCCN3CCCC3)c2cc1OC | -0.286 |
| COc1cc(Nc2ncc3c(n2)-c2ccc(Cl)cc2C(c2c(F)cccc2OC)=NC3)ccc1C(=O)O [Alisertib (MLN8237)] | 0.176 |
| N#Cc1nc2c(nc1C#N)-c1ccccc1/C2=N\OCc1ccccc1 | 0.177 |
| CCCCc1ccc(NC(C)=O)c(C)c1 | 0.148 |
| O=C1CCC(N2Cc3c(Br)cccc3C2=O)C(=O)N1 (stereo not given) [Lenalidomide-Br] | 0.0485 |
| CCCc1ccc(OCC(=O)N(Cc2nc(-c3cccnc3)no2)C(C)C)cc1 | 0.00478 |
| N[C@H]1C[C@@H]1c1ccc(-c2cccc(O)c2)cc1 | -0.0241 |

Part of the list above, as labelled records.
COc1ccc(C2=N[C@H](c3ccc(Cl)cc3)[C@H](c3ccc(Cl)cc3)N2C(=O)N2CCNC(=O)C2)c(OC(C)C)c1 [Nutlin-3b]
  inhibition of N-Myc immunofluorescence signal per cell: 0.123
O=C(O)c1c[nH]c2c(ccc3cccnc32)c1=O
  inhibition of N-Myc immunofluorescence signal per cell: 0.152
